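Uptake of anthrax lethal toxin into cultured cells, read by FRET (460/530 nm ratio) and reported from the 460 nm channel; the cell line is not named here. Each compound was tested as a concentration series from about 0.0005 to 40 µM. The number is the fitted AC50 of the 460 nm signal alone; lower values mean a more potent effect. A falling signal goes with compounds filed as inhibitors or cytotoxic, a rising one with activators or fluorescent compounds (inferred from the filed classes).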

Values are in µM. Common to all entries: measured here: 460 nm channel. This is a side read-out of the assay, for part of the compounds, not drawn at random. A potency from a partial, single-point or poor curve is only a rough figure. The first word of each remark tells which way the curve ran; it can be opposite to the aim of the assay.

{"compound": "O=C(Nc1ccc(OC(F)F)c(Cl)c1)Nc1ccc2c(c1)OCO2", "AC50 (µM)": "2.512", "curve as filed": "falling, partial curve"}
{"compound": "N#Cc1c(N2CCN(C(=O)c3ccco3)CC2)nc(-c2ccccc2)c2c1CCCC2", "AC50 (µM)": "10", "curve as filed": "falling, partial curve"}
{"compound": "COc1cccc(-n2nnc3c(=O)n(C/C=C/c4ccccc4)cnc32)c1", "AC50 (µM)": "10", "curve as filed": "falling, single point"}
{"compound": "COc1ccc(Nc2ncnc3c2cnn3Cc2ccccc2)cc1", "AC50 (µM)": "31.62", "curve as filed": "falling, single point"}
{"compound": "COc1ccc(N2C(=O)C(Cl)=C(N3CCCC3)C2=O)cc1", "AC50 (µM)": "10", "curve as filed": "falling, partial curve"}
{"compound": "COc1ccc(C2C3=C(CC(C)(C)CC3=O)Nc3n[nH]c(C)c32)cc1", "stereo": "centres unmarked", "AC50 (µM)": "6.31", "curve as filed": "rising, partial curve"}
{"compound": "CC1CC(C)CN(c2ncc3c(n2)CC(c2ccc(Cl)cc2)CC3=O)C1", "stereo": "centres unmarked", "AC50 (µM)": "0.2512", "curve as filed": "falling, partial curve"}
{"compound": "CC1CC(C)CN(S(=O)(=O)c2ccc(NC(=O)C3COc4ccccc4O3)cc2)C1", "stereo": "centres unmarked", "AC50 (µM)": "10", "curve as filed": "falling, partial curve"}
{"compound": "N#CC1=C(N)SC(N)=C(C#N)C1c1ccc(C(F)(F)F)cc1", "AC50 (µM)": "10", "curve as filed": "falling, partial curve"}
{"compound": "O=S(=O)(c1ccccc1)N1CCC[C@@]2(CCN(Cc3nccs3)C2)C1", "AC50 (µM)": "15.85", "curve as filed": "rising, partial curve"}
{"compound": "COc1cccc(Nc2ncc3nc(-c4ccc(F)cc4)c(=O)n(C)c3n2)c1", "AC50 (µM)": "12.59", "curve as filed": "rising, partial curve"}
{"compound": "O=c1c2ccccc2[se]n1-c1ccccc1", "AC50 (µM)": "0.07943", "curve as filed": "falling, full curve, poor fit"}
{"compound": "Cn1cc(-c2nc3cnc(OCc4ccccc4)nc3n(CCC#N)c2=O)c2ccccc21", "AC50 (µM)": "3.981", "curve as filed": "rising, partial curve"}
{"compound": "O=C(COc1ccc2ccccc2c1CN1CCOCC1)N1CCc2ccccc21", "AC50 (µM)": "25.12", "curve as filed": "falling, single point"}
{"compound": "COCc1nc2c([nH]1)c(=O)n(C)c(=O)n2CC(C)C", "AC50 (µM)": "0.03981", "curve as filed": "rising, full curve, poor fit"}
{"compound": "Cc1nn(-c2ccccc2)c2c1/C(=N/O)CC(C)(C)C2", "AC50 (µM)": "0.003981", "curve as filed": "falling, full curve, poor fit"}
{"compound": "C[C@@H](O)CN(CCN(C[C@@H](C)O)C[C@@H](C)O)C[C@@H](C)O.O=[N+]([O-])O.[Cu]", "AC50 (µM)": "1", "curve as filed": "falling, single point"}
{"compound": "CCCCCn1c(CN2CC(C)OC(C)C2)nc2c1c(=O)n(C)c(=O)n2C", "stereo": "centres unmarked", "AC50 (µM)": "6.31", "curve as filed": "rising, partial curve"}
{"compound": "NC(=O)c1c(C(F)(F)F)cc(-c2ccccc2)nc1NCCO", "AC50 (µM)": "12.59", "curve as filed": "falling, partial curve"}
{"compound": "COc1ccc(Br)cc1C1CC(=O)N2CN(Cc3ccccc3)CSC2=C1C#N", "stereo": "centres unmarked", "AC50 (µM)": "7.943", "curve as filed": "falling, partial curve"}

Repeated from the top, 2 entries:

compound,AC50 (µM),curve as filed
O=C(Nc1ccc(OC(F)F)c(Cl)c1)Nc1ccc2c(c1)OCO2,2.512,"falling, partial curve"
N#Cc1c(N2CCN(C(=O)c3ccco3)CC2)nc(-c2ccccc2)c2c1CCCC2,10,"falling, partial curve"

Data taken from PubChem BioAssay AID912, deposited by NCATS (2007).